Results: patent publication US20170218379A1
Results are given in words; binding and its absence hold for the method and conditions named. Some binding calls cover weakened binding; strength is not graded here.

Chains of the proteins cited; added tags and fusions are not shown. Lines headed by an entry give the natural chain unless they say otherwise; changes in a name come on top.
UniProt P03023: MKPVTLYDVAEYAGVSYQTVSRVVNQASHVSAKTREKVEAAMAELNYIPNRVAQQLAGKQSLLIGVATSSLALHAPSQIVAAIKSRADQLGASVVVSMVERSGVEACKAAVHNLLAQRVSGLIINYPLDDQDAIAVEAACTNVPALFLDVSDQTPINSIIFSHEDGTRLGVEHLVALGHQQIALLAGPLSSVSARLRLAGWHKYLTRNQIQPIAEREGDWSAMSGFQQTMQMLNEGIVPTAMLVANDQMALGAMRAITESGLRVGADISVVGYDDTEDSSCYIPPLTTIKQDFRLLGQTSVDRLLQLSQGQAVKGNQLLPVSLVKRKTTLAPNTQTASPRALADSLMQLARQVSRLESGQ

Legend:
[1] = molecular target: EuLac dimeric lac repressor (lacI lacking the 11 C-terminal residues) with 6x Histidine tag (E. coli, strain K12) (UniProt P03023); assay: native (blue native) gel electrophoresis of purified His-tagged protein; self-association to a dimer
[2] = molecular target: EuLacTet lac repressor (tetrameric lacI repressor) with 6x Histidine tag (E. coli, strain K12) (UniProt P03023); assay: native gel electrophoresis; self-association to a tetramer
[3] = molecular target: EuLacTet lac repressor (tetrameric lacI repressor) with 6x Histidine tag (E. coli, strain K12) (UniProt P03023); assay: native (blue native) gel electrophoresis of purified His-tagged protein; self-association to a tetramer

binding [1]	binding [2]	binding [3]	Substance
binds	–	–	EuLac dimeric lac repressor (lacI lacking the 11 C-terminal residues) with 6x Histidine tag (from UniProt P03023 1-349)
–	binds	binds	EuLacTet lac repressor (tetrameric lacI repressor) with 6x Histidine tag (from UniProt P03023 1-360)
